Source: patent publication US20110040077

Sequences of proteins named here, by UniProt entry; tags and fusion partners are left off. A change or cut given only in a name is not applied to a line headed by its entry.
UniProt O29494: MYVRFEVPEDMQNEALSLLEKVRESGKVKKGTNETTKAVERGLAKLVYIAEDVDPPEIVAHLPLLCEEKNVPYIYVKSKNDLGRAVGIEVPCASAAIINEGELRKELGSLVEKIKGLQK

Biological target: L7Ae (Archaeoglobus fulgidus) (UniProt O29494)
Assay: inhibition of the protein
Settings: purified recombinant protein, protein details: His tag (pET-28b+, NdeI/XhoI)

**Q.** “GGGAGACCACAACGGUUUCCCUCUAGAAAUAAUUUUGUUUAACUUUAAGAAGGAGAUAUACCAAUGAGGGGAAACCCAGCCUCCUCCGAGGACGUCAUCAAGGAGUUCAUGCGCUUCAAGGUGCGCAUGGAGGGCUCCGUGAACGGCCACGAGUUCGAGAUCGAGGGCGAGGGCGAGGGCCGCCCCUACGAGGGCACCCAGACCGCCAAGCUGAAGGUGACCAAGGGCGGCCCCCUGCCCUUCGCCUGGGACAUCCUGUCCCCCCAGUUCCAGUACGGCUCCAAGGUGUACGUGAAGCACCCCGCCGACAUCCCCGACUACAAGAAGCUGUCCUUCCCCGAGGGCUUCAAGUGGGAGCGCGUGAUGAACUUCGAGGACGGCGGCGUGGUGACCGUGACCCAGGACUCCUCCCUGCAGGACGGCUCCUUCAUCUACAAGGUGAAGUUCAUCGGCGUGAACUUCCCCUCCGACGGCCCCGUAAUGCAGAAGAAGACUAUGGGCUGGGAGGCCUCCACCGAGCGCCUGUACCCCCGCGACGGCGUGCUGAAGGGCGAGAUCCACAAGGCCCUGAAGCUGAAGGACGGCGGCCACUACCUGGUGGAGUUCAAGUCCAUCUACAUGGCCAAGAAGCCCGUGCAGCUGCCCGGCUACUACUACGUGGACUCCAAGCUGGACAUCACCUCCCACAACGAGGACUACACCAUCGUGGAGCAGUACGAGCGCGCCGAGGGCCGCCACCACCUGUUCCUGUAGUAAUGAAUA [Box C/D mut-DsRed-Ex mRNA]” was tested. Which functional effect (slight repression only at 5-10 uM L7Ae, variant of Box C/D-DsRed-Ex mRNA) did it give?
**A.** less active

**Q.** How did the functional effect (no motif, slight repression only at 5-10 uM L7Ae, variant of Box C/D-DsRed-Ex …) turn out when “GGGAGACCACAACGGUUUCCCUCUAGAAAUAAUUUUGUUUAACUUUAAGAAGGAGAUAUACCAAUGGCCUCCUCCGAGGACGUCAUCAAGGAGUUCAUGCGCUUCAAGGUGCGCAUGGAGGGCUCCGUGAACGGCCACGAGUUCGAGAUCGAGGGCGAGGGCGAGGGCCGCCCCUACGAGGGCACCCAGACCGCCAAGCUGAAGGUGACCAAGGGCGGCCCCCUGCCCUUCGCCUGGGACAUCCUGUCCCCCCAGUUCCAGUACGGCUCCAAGGUGUACGUGAAGCACCCCGCCGACAUCCCCGACUACAAGAAGCUGUCCUUCCCCGAGGGCUUCAAGUGGGAGCGCGUGAUGAACUUCGAGGACGGCGGCGUGGUGACCGUGACCCAGGACUCCUCCCUGCAGGACGGCUCCUUCAUCUACAAGGUGAAGUUCAUCGGCGUGAACUUCCCCUCCGACGGCCCCGUAAUGCAGAAGAAGACUAUGGGCUGGGAGGCCUCCACCGAGCGCCUGUACCCCCGCGACGGCGUGCUGAAGGGCGAGAUCCACAAGGCCCUGAAGCUGAAGGACGGCGGCCACUACCUGGUGGAGUUCAAGUCCAUCUACAUGGCCAAGAAGCCCGUGCAGCUGCCCGGCUACUACUACGUGGACUCCAAGCUGGACAUCACCUCCCACAACGAGGACUACACCAUCGUGGAGCAGUACGAGCGCGCCGAGGGCCGCCACCACCUGUUCCUGUAGUAAUGAAUA [DsRed-Ex control mRNA]” was run?
**A.** less active

**Q.** Which functional effect (translation repression in PURE system) does the source give for “GGGAGACCACAACGGUUUCCCUCUAGAAAUAAUUUUGUUUAACUUUAAGAAGGAGAUAUACCAAUGGGGCGUGAUGCGAAAGCUGACCCUGCCUCCUCCGAGGACGUCAUCAAGGAGUUCAUGCGCUUCAAGGUGCGCAUGGAGGGCUCCGUGAACGGCCACGAGUUCGAGAUCGAGGGCGAGGGCGAGGGCCGCCCCUACGAGGGCACCCAGACCGCCAAGCUGAAGGUGACCAAGGGCGGCCCCCUGCCCUUCGCCUGGGACAUCCUGUCCCCCCAGUUCCAGUACGGCUCCAAGGUGUACGUGAAGCACCCCGCCGACAUCCCCGACUACAAGAAGCUGUCCUUCCCCGAGGGCUUCAAGUGGGAGCGCGUGAUGAACUUCGAGGACGGCGGCGUGGUGACCGUGACCCAGGACUCCUCCCUGCAGGACGGCUCCUUCAUCUACAAGGUGAAGUUCAUCGGCGUGAACUUCCCCUCCGACGGCCCCGUAAUGCAGAAGAAGACUAUGGGCUGGGAGGCCUCCACCGAGCGCCUGUACCCCCGCGACGGCGUGCUGAAGGGCGAGAUCCACAAGGCCCUGAAGCUGAAGGACGGCGGCCACUACCUGGUGGAGUUCAAGUCCAUCUACAUGGCCAAGAAGCCCGUGCAGCUGCCCGGCUACUACUACGUGGACUCCAAGCUGGACAUCACCUCCCACAACGAGGACUACACCAUCGUGGAGCAGUACGAGCGCGCCGAGGGCCGCCACCACCUGUUCCUGUAGUAAUGAAUA [Box C/D-DsRed-Ex mRNA]” here?
**A.** active

For at least one entry, the source does not settle the construct or the ends of the probe. The comparison behind a weaker result is the experiment's own reference, which may not be listed here.
